For the experiment, the target named is GRP78 (mouse (endogenous in primary neurons)) (UniProt P20029). In words: co-IP; lysates from around 10 million primary mouse neurons, immunoprecipitated with protein A/G magnetic beads linked to the appropriate antibody in IP buffer; detected by western blot.

Amino acid sequences for entries named in this document (tags omitted). Residues count along the entry.
UniProt P20029, residues 20-655: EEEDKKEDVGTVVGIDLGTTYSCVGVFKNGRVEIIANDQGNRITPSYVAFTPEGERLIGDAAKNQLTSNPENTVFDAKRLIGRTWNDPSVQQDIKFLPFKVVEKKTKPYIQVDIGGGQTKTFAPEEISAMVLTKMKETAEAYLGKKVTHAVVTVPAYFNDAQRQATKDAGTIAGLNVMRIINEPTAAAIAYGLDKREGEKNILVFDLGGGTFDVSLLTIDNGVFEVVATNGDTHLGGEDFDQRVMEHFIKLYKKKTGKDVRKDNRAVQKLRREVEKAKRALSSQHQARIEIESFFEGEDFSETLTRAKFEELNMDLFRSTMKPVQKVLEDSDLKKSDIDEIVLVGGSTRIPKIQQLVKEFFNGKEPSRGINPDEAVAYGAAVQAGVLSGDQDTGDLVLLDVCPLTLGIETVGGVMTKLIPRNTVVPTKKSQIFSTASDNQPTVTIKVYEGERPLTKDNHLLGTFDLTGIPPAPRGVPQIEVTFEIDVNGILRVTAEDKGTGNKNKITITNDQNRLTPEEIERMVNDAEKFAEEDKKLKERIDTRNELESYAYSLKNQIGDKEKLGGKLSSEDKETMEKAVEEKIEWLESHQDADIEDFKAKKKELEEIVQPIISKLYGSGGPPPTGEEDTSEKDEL

These are yes or no findings as the source states them, for the method shown. In cells and extracts the contact can be indirect. Some entries that bind do so weakly or less than the wild type.

Experimental findings from PMC11379068 are described below.

B1: MTHFD2 (protein, UniProt P18155 36-350)
chain: EAVVISGRKLAQQIKQEVQQEVEEWVASGNKRPHLSVILVGDNPASHSYVLNKTRAAAEVGINSETIVKPASVSEEELLNSIRKLNNDENVDGLLVQLPLPEHIDERKVCNAVSPDKDVDGFHVINVGRMCLDQYSMLPATPWGVWEIIKRTGIPTLGKNVVVAGRSKNVGMPIAMLLHTDGAHERPGGDATVTISHRYTPKEQLKKHTILADIVISAAGIPNLITADMIKEGAAVIDVGINRVQDPVTAKPKLVGDVDFEGVKKKAGYITPVPGGVGPMTVAMLMKNTIIAAKKVLRPEELEVFKSKQRGVATN
Turning to B1, the binding entry is “binds”.
